The subject of this experiment is HEK293A TEAD-LUC reporter. The experiment in a line: TEAD-luciferase reporter activity (YAP activation), robust Z score vs plate; higher = stronger YAP/TEAD activation. Particulars: 24 h.

From the supplement of paper PMC10735217 come the findings set out here.

Molecules are shown by their SMILES. Counter-ions that a name gives are not always drawn. Some of the results follow. Repeats in this data set agree poorly, so a single value says little.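 In a drug-repurposing library screen, luminescence reads luciferase driven by eight TEAD-binding elements, stably integrated into human kidney-derived cells. Compounds scoring over five robust Z scores above the plate mean are called hits.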

`COc1ccc2cc([C@H](C)C(=O)OCCS(C)(=O)=O)ccc2c1` [naproxen etemesil]: the TEAD-luciferase reporter activity is, setting by setting: (compound concentration: 200 nM) inactive: 0.785; (compound concentration: 2 uM) inactive: -1.18; (compound concentration: 10 uM) inactive: 1.87.
Take `O=C(CCCCC(=O)Nc1c(I)cc(I)c(C(=O)O)c1I)Nc1c(I)cc(I)c(C(=O)O)c1I` [Iodipamide]: the TEAD-luciferase reporter activity is inactive: -0.985 (compound concentration: 200 nM), inactive: 0.0648 (compound concentration: 2 uM) and inactive: -0.38 (compound concentration: 10 uM).
With `COc1ccc(-c2sc(NC(=O)c3cc(OC)c(OC)c(OC)c3)nc2-c2ccccc2)cc1`, the TEAD-luciferase reporter activity (compound concentration: 200 nM) is inactive: -1.1, the TEAD-luciferase reporter activity (compound concentration: 2 uM) was inactive: -0.595 and the TEAD-luciferase reporter activity (compound concentration: 10 uM) was inactive: -1.14.
For `O=C1NC(O)CCN1[C@@H]1O[C@H](CO)[C@@H](O)[C@H]1O` (stereo partly specified) [Tetrahydrouridine] the same measures were inactive: -0.786, inactive: -2.31 and inactive: -0.469.
Taken in the same sequence, the figures for `N=C(NCCCc1cnc[nH]1)NCCC(c1ccc(F)cc1)c1ccccn1` (stereo unspecified) were inactive: -1.69, inactive: 2.3 and inactive: -0.628.
Regarding `Oc1c(-n2ccnn2)cnn1-c1cc(N2CCOCC2)ncn1` [molidustat], the TEAD-luciferase reporter activity (compound concentration: 200 nM) is inactive: 0.147 and the TEAD-luciferase reporter activity (compound concentration: 10 uM) was inactive: -1.35.
Take `Oc1c(-n2ccnn2)cnn1-c1cc(N2CCOCC2)ncn1` [Molidustat sodium]: the TEAD-luciferase reporter activity (compound concentration: 2 uM) is inactive: -1.52.
As to `N#Cc1cc(-c2ccccc2)nnc1NCCN1CCOCC1`, the TEAD-luciferase reporter activity was inactive: -0.639 (compound concentration: 200 nM), inactive: -1.28 (compound concentration: 2 uM) and inactive: -0.807 (compound concentration: 10 uM).
Regarding `CC(=O)N[C@@H](Cc1ccc(OP(=O)(O)O)cc1)C(=O)N[C@H](C)c1ccc(OCC2CCCCC2)c(C(N)=O)c1`, the TEAD-luciferase reporter activity is inactive: -0.936 (compound concentration: 200 nM), inactive: 0.489 (compound concentration: 2 uM) and inactive: 1.72 (compound concentration: 10 uM).
Taken in the same sequence, the figures for `COc1cc(C(=O)c2c(C)oc3c(O)c(OC)ccc23)cc(OC)c1OC` were inactive: -1.34, inactive: 1.51 and inactive: 0.798.
Take `Cc1ccc(Nc2c(F)cccc2Cl)c(CC(=O)O)c1`: the TEAD-luciferase reporter activity runs as follows: (compound concentration: 200 nM) inactive: -2.61; (compound concentration: 10 uM) inactive: -1.03.
As for `Cc1ccc(Nc2c(F)cccc2Cl)c(CC(=O)O)c1` [lumiracoxib], the TEAD-luciferase reporter activity (compound concentration: 2 uM) is inactive: 4.72.
For the compound `Nc1cc2c3ccccc3ccc2c2ccccc12` [6-Aminochrysene], the TEAD-luciferase reporter activity is, setting by setting: (compound concentration: 200 nM) inactive: -2.99; (compound concentration: 2 uM) inactive: -3.79; (compound concentration: 10 uM) inactive: 1.01.
As for `Cc1cc2c(cc1C(F)(F)F)N(C(=O)Nc1ccc(Oc3cccnc3C)nc1)CC2`, the TEAD-luciferase reporter activity (compound concentration: 200 nM) is inactive: -2.15, the TEAD-luciferase reporter activity (compound concentration: 2 uM) is inactive: -2.4 and the TEAD-luciferase reporter activity (compound concentration: 10 uM) is inactive: -0.928.
Regarding `C[C@H]1C[C@H]2[C@@H]3CCC4=CC(=O)C=C[C@]4(C)[C@@]3(F)[C@@H](O)C[C@]2(C)[C@@]1(OC(=O)c1ccccc1)C(=O)CO`, the TEAD-luciferase reporter activity is, setting by setting: (compound concentration: 200 nM) inactive: 1.53; (compound concentration: 2 uM) inactive: -0.491; (compound concentration: 10 uM) inactive: 4.72.
As to `O=C(OCCOCCO)c1ccccc1Nc1cccc(C(F)(F)F)c1` [etofenamate], the TEAD-luciferase reporter activity by setting is: (compound concentration: 200 nM) inactive: -1.39; (compound concentration: 2 uM) inactive: 1.01; (compound concentration: 10 uM) inactive: -0.915.
For the compound `CC(C)S(=O)(=O)N[C@H]1COC[C@H]1Oc1ccc(-c2ccc(C#N)s2)cc1`, the TEAD-luciferase reporter activity runs as follows: (compound concentration: 200 nM) inactive: -0.879; (compound concentration: 2 uM) inactive: -0.0318; (compound concentration: 10 uM) inactive: 1.73.
Turning to `COc1cccc(C(=O)O)c1OC(C)=O`, the TEAD-luciferase reporter activity is inactive: -0.901 (compound concentration: 200 nM), inactive: 0.023 (compound concentration: 2 uM) and inactive: 1.27 (compound concentration: 10 uM).
Consider `CC1(C)O[C@@H]2C[C@H]3[C@@H]4CCC5=CC(=O)CC[C@]5(C)[C@@]4(F)[C@@H](O)C[C@]3(C)[C@]2(C(=O)CCl)O1` [Halcinonide], for which the TEAD-luciferase reporter activity is inactive: -0.563 (compound concentration: 200 nM), inactive: 0.606 (compound concentration: 2 uM) and inactive: -0.024 (compound concentration: 10 uM).
Take `O=C(Nc1ccc(OC(F)(F)F)cc1)c1sccc1NCc1ccnc2ccccc12`: the TEAD-luciferase reporter activity is, setting by setting: (compound concentration: 200 nM) active: 7.2; (compound concentration: 2 uM) active: 5.64; (compound concentration: 10 uM) inactive: 0.847.
For `Cc1cc(-c2ccc(/N=N/c3c(S(=O)(=O)O)cc4cc(S(=O)(=O)O)cc(N)c4c3O)c(C)c2)ccc1/N=N/c1c(S(=O)(=O)O)cc2cc(S(=O)(=O)O)cc(N)c2c1O`, the TEAD-luciferase reporter activity was inactive: -1.3 (compound concentration: 200 nM), inactive: -3.54 (compound concentration: 2 uM) and inactive: -2.34 (compound concentration: 10 uM).
For the compound `CCC(C)CCCCC(=O)N[C@@H](CCN)C(=O)N[C@H](C(=O)N[C@@H](CCN)C(=O)N[C@H]1CCNC(=O)[C@H]([C@@H](C)O)NC(=O)[C@H](CCN)NC(=O)[C@H](CCN)NC(=O)[C@H](CC(C)C)NC(=O)[C@@H](CC(C)C)NC(=O)[C@H](CCN)NC1=O)[C@@H](C)O` (stereo partly specified) [Colistin sulfate], the TEAD-luciferase reporter activity runs as follows: (compound concentration: 200 nM) inactive: -0.146; (compound concentration: 2 uM) inactive: -0.477; (compound concentration: 10 uM) inactive: 2.8.
Consider `COC(=O)[C@H](CC(C)C)NC(=O)[C@H](Cc1cnc[nH]1)NC(=O)[C@@H](C)NC(=O)[C@@H](NC(=O)[C@H](C)NC(=O)[C@H](Cc1c[nH]c2ccccc12)NC(=O)[C@H](CCC(N)=O)NC(=O)[C@H](N)Cc1c(F)c(F)c(F)c(F)c1F)C(C)C`, for which the TEAD-luciferase reporter activity is, setting by setting: (compound concentration: 200 nM) inactive: -0.592; (compound concentration: 2 uM) inactive: 0.00727; (compound concentration: 10 uM) inactive: 0.135.
With `OC[C@H]1OC2(CO)OC[C@@]3(O[C@H](CO)[C@@H](O)[C@@H]3O)O[C@H]2[C@@H]1O` (stereo partly specified) [Difructose Anhydride III], the TEAD-luciferase reporter activity was inactive: -1.13 (compound concentration: 200 nM), inactive: -0.0888 (compound concentration: 2 uM) and inactive: 2.96 (compound concentration: 10 uM).
